Reference: paper PMC5584178
Positions count from the first letter of the chain named. These are yes or no findings as the source states them, for the method shown. For part of these data: Binding can be weak; no strength is given. Where a sequence is shown, tags or fusion partners need not be part of it.

B1: Sid4, two-hybrid fusion tested with the Chk2^Cds1 FHA domain (protein, UniProt O60187 1-660)
chain: MDEAFGDSLSTDYRWLGHSHFDSHPSAGDSIYFDSLDEDADPSRTARIDRIAELLDGLNDEQISELVNGVNSTTIKENTKKEISNPNDSTRLPLEQIPGSNNLFLDPRHQLGDNSQNAQRHHEPSFNSEKASYTSTPYKNVAPKVIDSPSARHMHSNSPSFPPSQSHTSSYDQSPKGQLRDNISVPNQQDGLDPEVFNQQSKETKKSLQVPPSRNVPPPVTRPNQYNPEPNFSLSSGYPQQHFSQPELQNRNVHLETVPESYPVPPSGYPLTSSTCVSSISQPIQSTDCQKAQENLSNNKQMSSNDQDIDPFKQAITDLPPSFVNIVLEMNATIQSLSNQCQQRDKQIENITKQLLMNQQDYCPTTMSTTVSTPLCPPKRFPKSTKDFKEQKPDTKQVRSATISNDFNLKGNGRYNEKSQIAVPSEIRVQLSTLDAILLQFEHLRKELTQARKEIQILRHTSQNGDQESNESSKNAITTKTTDKGNNKENTMLNDGSTAPAKNDIRNVINTNNLDAKLSDESELMIEKNKSYSTPASSTIPTFHTSQPLTSLNMPDSRFNLAKEKQLYYRLGLQHIDQQCSVETANMLKTVLVQLNIPFAIFPSTIGQVRRQLQQGRRLYQWARNIHYLIYEENMRDGLVSKQCLADMLKKIRELKKRSL
B2: Sid4.T275AS278A, two-hybrid fusion (protein, UniProt O60187 1-660)
chain: B1 chain with T275A, S278A

Legend:
[1] = biological target: FHA domain of Chk2^Cds1 H81A, two-hybrid fusion (fission yeast); test: two-hybrid; Matchmaker Gold system, pGADT7 in Y187 crossed with pGBKT7 in Y2HGold; diploids plated on SD-Trp-Leu and SD-Trp-Leu-His, 30°C, 2-3 d
[2] = biological target: FHA domain of Chk2^Cds1, two-hybrid fusion (fission yeast); test: as above

Binder | binding [1] | binding [2]
B1 | no binding | binds
B2 |  | no binding
